One series relates to HBEC-5i cells. Kind of series: MTT cell viability assay, HBEC-5i. Conditions: 20 µM, 48 h.
Series [1] is described as follows: Confirmatory dose-response assay, cytotoxicity (CC50). The following applies: African green monkey, Vero CCL81 cells.

This is an account of results in paper PMC10747599 (Viruses, 2023).

For orientation: CC50 means the concentration giving 50% cytotoxicity. Low values mean harm at low concentration, high ones better tolerance by the cells.

With `CCCCc1oc2ccccc2c1C(=O)c1cc(I)c(OCCN(CC)CC)c(I)c1` [Amiodarone], in the series with HBEC-5i cells, the “reduction in cell viability / toxicity” value is reported as “not toxic”. Moreover, in series [1], the CC50 at 72 h is 25.7 µM.
